Assay results reported in patent US6974839B2, “Method of delaying ejaculation” (DMI BioSciences, Inc., priority 2001, dated 2005).
Structures can show the parent of a compound that is named as a salt. At least one structure is not confirmed: it was looked up by name or label, or the drawing left a doubt.

Tested on: normal subject
Experiment: Delay of ejaculation after an oral dose taken 30–60 minutes prior to sexual intercourse
Format: in vivo, human
Conditions: doses of 50–100 mg
Description: […]. […] […]

SMILES: COc1cccc([C@]2(O)CCCC[C@H]2CN(C)C)c1 (racemic) [tramadol hydrochloride, (±)cis-2-[(dimethylamino)methyl]-1-(3-methoxyphenyl)-cyclohexanol hydrochloride]
- delay of ejaculation: a similar effect was observed
